Data: patent US10048278B2, “Screening for neurotoxic amino acid associated with neurological disorders” (priority 2003, dated 2018)

Assay: BMAA in Gunnera plants with cyanobacterial symbiont
Details: Gunnera kauaiensis, petiolar tissue

Q: With `CNC[C@H](N)C(=O)O` [BMAA, β-N-methylamino-L-alanine] as the compound, how does the BMAA concentration read?
A: The BMAA concentration was 4 µg/g.
